{
  "source": "patent US20110053991A1",
  "about": "“Treatment of Histone Deacetylase Mediated Disorders” (priority 2007, published 2011)",
  "test_in_all_cases": "MTT assay, cell number relative to vehicle",
  "assay_type_in_all_cases": "cell-based",
  "key": {"Molt-3": {"system": "Molt-3", "conditions": "Homo sapiens, Molt-3, T Cell Lymphoblastic Leukemia, 48 hours"}, "Molt-4": {"system": "Molt-4", "conditions": "Homo sapiens, Molt-4, T Cell Lymphoblastic Leukemia, 48 hours"}, "HSB-2": {"system": "HSB-2", "conditions": "HSB2, HSB-2 (LCK-TCRβ), T Cell Lymphoblastic Leukemia, 48 hours"}, "CEM": {"system": "CEM", "conditions": "Homo sapiens, CCRF-CEM, T Cell Lymphoblastic Leukemia, 48 hours"}, "RCH-AcV": {"system": "RCH-AcV", "conditions": "RCH-AcV (E2A-PBX1), B Cell Lymphoblastic Leukemia, 48 hours"}, "REH": {"system": "REH", "conditions": "Homo sapiens, REH (TEL-AML1), B Cell Lymphoblastic Leukemia, 48 hours", "description": "Acute lymphocytic leukemia (ALL) cell lines (REH, CEM, RS411, SEM, and/or KOPN8) and acute myeloid leukemia (AML) cell lines (MV411, Molm13, Molm14, THP1, and/or NOMO1) were treated with vorinostat (SAHA), entinostat (SNDX-275), or vehicle only for 48 hours (FIGS. 1-3 and Table 1). Alternatively, an ALL cell line (REH) was treated with Trichostatin A (TSA), sodium phenyl butyrate (SPB), or vehicle only for 48 hours. MTT or BrdU were added for 4 hours. The relative number of viable cells, as indicated by MTT reduction, was determined (FIG. 1A and Table 1). The relative number of proliferating cells, as indicated by BrdU-incorporation, was measured using an ELISA assay (FIG. 1B). IC50 values were calculated using non-linear regression (Table 1). The percentages of apoptotic and dead cells were determined by flow cytometric analysis of cells stained with YO-PRO®-1 and propidium iodide (FIGS. 2 and 5A). DNA content was determined by flow cytometric analysis of propidium iodide stained cells. The fractions of cells with G1, S, and G2/M phase DNA contents were determined (FIGS. 3 and 5B)."}, "UOCB1": {"system": "UOCB1", "conditions": "Homo sapiens, UoC-B1, UOCB1 (E2A-HLF), B Cell Lymphoblastic Leukemia, 48 hours"}, "Nalm-6": {"system": "Nalm-6", "conditions": "Homo sapiens, Nalm-6 (PDGFRβ-TEL), B Cell Lymphoblastic Leukemia, 48 hours"}, "HAL-01": {"system": "HAL-01", "conditions": "Homo sapiens, HAL-01 (TCF3/E2A-HLF), B Cell Lymphoblastic Leukemia, 48 hours"}, "RS4; 11": {"system": "RS4; 11", "conditions": "Homo sapiens, 11 (MLL-AF4), Biphenotypic Leukemia with Lymphoblastic Features, 48 hours"}, "SEM cells": {"system": "SEM cells", "conditions": "SEM (MLL-AF4), Biphenotypic Leukemia with Lymphoblastic Features, 48 hours"}, "KOPN-8": {"system": "KOPN-8", "conditions": "Homo sapiens, KOPN-8 (MLL-ENL), Biphenotypic Leukemia with Lymphoblastic Features, 48 hours"}, "HEL": {"system": "HEL", "conditions": "Homo sapiens, Myeloid Leukemia, 48 hours"}, "KG1": {"system": "KG1", "conditions": "Homo sapiens, KG-1, KG1, Myeloid Leukemia, 48 hours"}, "U937": {"system": "U937", "conditions": "Homo sapiens, U-937, U937, Myeloid Leukemia, 48 hours"}, "EOL-1": {"system": "EOL-1", "conditions": "Homo sapiens, EOL1, EOL-1 (FIP1L1-PDGFRα), Myeloid Leukemia, 48 hours"}, "HL-60": {"system": "HL-60", "conditions": "Homo sapiens, HL-60, Myeloid Leukemia, 48 hours"}, "MV4-11": {"system": "MV4-11", "conditions": "Homo sapiens, MV4-11 (MLL-AF4), Biphenotypic Leukemia with Myeloid Features, 48 hours"}, "Molm-13": {"system": "Molm-13", "conditions": "Homo sapiens, Molm-13 (MLL-AF9), Biphenotypic Leukemia with Myeloid Features, 48 hours"}, "Molm-14": {"system": "Molm-14", "conditions": "Homo sapiens, Molm-14 (MLL-AF9), Biphenotypic Leukemia with Myeloid Features, 48 hours"}, "THP-1": {"system": "THP-1", "conditions": "Homo sapiens, THP-1 (MLL-AF9), Biphenotypic Leukemia with Myeloid Features, 48 hours"}, "NOMO-1": {"system": "NOMO-1", "conditions": "Homo sapiens, NOMO-1 (MLL-AF9), Biphenotypic Leukemia with Myeloid Features, 48 hours"}},
  "note": "pIC50: −log10 of the molar value.",
  "data": [
    {"compound": "O=C(CCCCCCC(=O)Nc1ccccc1)NO", "note": "[vorinostat, N′-hydroxy-N-phenyl-octanediamide]", "values": [
      {"measurement": "pIC50", "setting": "Molt-3", "value": 6.24},
      {"measurement": "pIC50", "setting": "Molt-4", "value": 6.26},
      {"measurement": "pIC50", "setting": "HSB-2", "value": 6.03},
      {"measurement": "pIC50", "setting": "CEM", "value": 6.15},
      {"measurement": "pIC50", "setting": "RCH-AcV", "value": 6.28},
      {"measurement": "pIC50", "setting": "REH", "value": 6.15},
      {"measurement": "pIC50", "setting": "UOCB1", "value": 6.32},
      {"measurement": "pIC50", "setting": "Nalm-6", "value": 6.19},
      {"measurement": "pIC50", "setting": "HAL-01", "value": 6.31},
      {"measurement": "pIC50", "setting": "RS4; 11", "value": 6.33},
      {"measurement": "pIC50", "setting": "SEM cells", "value": 6.39},
      {"measurement": "pIC50", "setting": "KOPN-8", "value": 6.19},
      {"measurement": "pIC50", "setting": "HEL", "value": 6.20},
      {"measurement": "pIC50", "setting": "KG1", "value": 6.32},
      {"measurement": "pIC50", "setting": "U937", "value": 6.14},
      {"measurement": "pIC50", "setting": "EOL-1", "value": 6.42},
      {"measurement": "pIC50", "setting": "HL-60", "value": 5.92},
      {"measurement": "pIC50", "setting": "MV4-11", "value": 6.33},
      {"measurement": "pIC50", "setting": "Molm-13", "value": 6.14},
      {"measurement": "pIC50", "setting": "Molm-14", "value": 6.27},
      {"measurement": "pIC50", "setting": "THP-1", "value": 5.60},
      {"measurement": "pIC50", "setting": "NOMO-1", "value": 5.79}
    ]}
  ]
}
